Reference: the supplement of paper PMC10849652
Some of the results follow.

Protein sequences, listed by entry. Tags and fused reporters are not part of them. Lines headed by an entry give the natural chain unless they say otherwise; changes in a name come on top.
UniProt Q13948: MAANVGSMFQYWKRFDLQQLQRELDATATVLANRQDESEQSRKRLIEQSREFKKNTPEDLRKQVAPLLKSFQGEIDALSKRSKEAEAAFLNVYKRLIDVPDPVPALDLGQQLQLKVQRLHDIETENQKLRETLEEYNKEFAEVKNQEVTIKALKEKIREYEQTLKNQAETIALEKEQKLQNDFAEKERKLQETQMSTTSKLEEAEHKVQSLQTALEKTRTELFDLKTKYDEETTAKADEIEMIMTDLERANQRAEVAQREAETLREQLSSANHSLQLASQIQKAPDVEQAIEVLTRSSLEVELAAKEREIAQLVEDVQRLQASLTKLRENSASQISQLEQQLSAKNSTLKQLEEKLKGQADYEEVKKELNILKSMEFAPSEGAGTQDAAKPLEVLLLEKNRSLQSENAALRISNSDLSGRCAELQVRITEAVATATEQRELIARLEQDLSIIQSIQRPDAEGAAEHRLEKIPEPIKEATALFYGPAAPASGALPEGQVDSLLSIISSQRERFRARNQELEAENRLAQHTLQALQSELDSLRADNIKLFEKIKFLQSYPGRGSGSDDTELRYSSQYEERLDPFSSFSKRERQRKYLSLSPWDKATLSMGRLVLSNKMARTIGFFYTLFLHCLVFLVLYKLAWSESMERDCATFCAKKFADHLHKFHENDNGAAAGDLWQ
UniProt P17812: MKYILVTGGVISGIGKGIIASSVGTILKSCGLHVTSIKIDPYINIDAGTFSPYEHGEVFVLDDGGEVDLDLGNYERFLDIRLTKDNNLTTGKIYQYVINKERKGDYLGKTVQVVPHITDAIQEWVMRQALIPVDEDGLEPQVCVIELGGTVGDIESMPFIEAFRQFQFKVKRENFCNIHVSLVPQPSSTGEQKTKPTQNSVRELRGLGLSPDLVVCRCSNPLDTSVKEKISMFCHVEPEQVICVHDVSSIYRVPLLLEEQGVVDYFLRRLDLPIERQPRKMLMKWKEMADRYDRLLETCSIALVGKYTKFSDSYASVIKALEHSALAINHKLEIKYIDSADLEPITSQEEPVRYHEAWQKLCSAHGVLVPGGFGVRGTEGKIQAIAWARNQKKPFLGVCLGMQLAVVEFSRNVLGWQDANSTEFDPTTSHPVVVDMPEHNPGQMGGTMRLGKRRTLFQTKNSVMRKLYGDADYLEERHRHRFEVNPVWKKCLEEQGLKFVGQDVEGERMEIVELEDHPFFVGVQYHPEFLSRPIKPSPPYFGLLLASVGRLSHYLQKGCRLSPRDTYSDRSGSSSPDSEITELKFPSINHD
UniProt P32929, whole entry, looked up: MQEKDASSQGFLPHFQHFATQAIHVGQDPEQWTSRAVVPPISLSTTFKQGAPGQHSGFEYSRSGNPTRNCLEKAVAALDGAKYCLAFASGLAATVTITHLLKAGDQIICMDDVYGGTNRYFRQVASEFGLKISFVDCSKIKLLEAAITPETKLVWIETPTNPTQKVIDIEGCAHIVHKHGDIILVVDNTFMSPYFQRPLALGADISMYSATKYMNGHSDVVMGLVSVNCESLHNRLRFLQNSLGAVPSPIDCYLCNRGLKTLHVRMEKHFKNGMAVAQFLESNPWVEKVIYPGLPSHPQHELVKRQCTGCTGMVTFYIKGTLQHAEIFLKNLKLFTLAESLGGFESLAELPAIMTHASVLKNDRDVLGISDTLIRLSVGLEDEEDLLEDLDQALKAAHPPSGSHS
UniProt P26232: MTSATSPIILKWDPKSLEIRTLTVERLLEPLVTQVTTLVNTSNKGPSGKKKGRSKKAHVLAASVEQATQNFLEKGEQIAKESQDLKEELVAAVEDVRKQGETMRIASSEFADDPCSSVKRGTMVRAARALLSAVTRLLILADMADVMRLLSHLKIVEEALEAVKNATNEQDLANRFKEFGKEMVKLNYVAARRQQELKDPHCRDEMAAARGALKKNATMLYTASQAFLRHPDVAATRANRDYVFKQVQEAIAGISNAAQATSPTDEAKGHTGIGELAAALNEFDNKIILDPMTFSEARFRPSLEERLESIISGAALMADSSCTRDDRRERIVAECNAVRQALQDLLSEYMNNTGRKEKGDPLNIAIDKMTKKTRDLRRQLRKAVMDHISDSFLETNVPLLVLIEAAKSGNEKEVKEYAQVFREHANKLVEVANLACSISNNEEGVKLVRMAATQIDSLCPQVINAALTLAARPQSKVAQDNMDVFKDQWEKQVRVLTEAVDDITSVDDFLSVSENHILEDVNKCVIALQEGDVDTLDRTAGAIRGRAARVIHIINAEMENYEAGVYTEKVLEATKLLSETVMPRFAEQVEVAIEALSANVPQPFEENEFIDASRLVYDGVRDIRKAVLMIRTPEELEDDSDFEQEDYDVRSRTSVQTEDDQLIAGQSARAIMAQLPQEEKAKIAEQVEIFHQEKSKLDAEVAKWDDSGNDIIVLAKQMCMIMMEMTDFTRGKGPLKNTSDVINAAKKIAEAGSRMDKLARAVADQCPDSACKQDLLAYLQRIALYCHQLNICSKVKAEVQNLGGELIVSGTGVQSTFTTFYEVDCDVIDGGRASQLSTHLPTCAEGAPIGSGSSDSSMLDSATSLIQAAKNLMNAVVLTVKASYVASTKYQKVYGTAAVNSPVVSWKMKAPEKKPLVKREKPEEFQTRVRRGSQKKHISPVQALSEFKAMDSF
UniProt Q13616, whole entry, looked up: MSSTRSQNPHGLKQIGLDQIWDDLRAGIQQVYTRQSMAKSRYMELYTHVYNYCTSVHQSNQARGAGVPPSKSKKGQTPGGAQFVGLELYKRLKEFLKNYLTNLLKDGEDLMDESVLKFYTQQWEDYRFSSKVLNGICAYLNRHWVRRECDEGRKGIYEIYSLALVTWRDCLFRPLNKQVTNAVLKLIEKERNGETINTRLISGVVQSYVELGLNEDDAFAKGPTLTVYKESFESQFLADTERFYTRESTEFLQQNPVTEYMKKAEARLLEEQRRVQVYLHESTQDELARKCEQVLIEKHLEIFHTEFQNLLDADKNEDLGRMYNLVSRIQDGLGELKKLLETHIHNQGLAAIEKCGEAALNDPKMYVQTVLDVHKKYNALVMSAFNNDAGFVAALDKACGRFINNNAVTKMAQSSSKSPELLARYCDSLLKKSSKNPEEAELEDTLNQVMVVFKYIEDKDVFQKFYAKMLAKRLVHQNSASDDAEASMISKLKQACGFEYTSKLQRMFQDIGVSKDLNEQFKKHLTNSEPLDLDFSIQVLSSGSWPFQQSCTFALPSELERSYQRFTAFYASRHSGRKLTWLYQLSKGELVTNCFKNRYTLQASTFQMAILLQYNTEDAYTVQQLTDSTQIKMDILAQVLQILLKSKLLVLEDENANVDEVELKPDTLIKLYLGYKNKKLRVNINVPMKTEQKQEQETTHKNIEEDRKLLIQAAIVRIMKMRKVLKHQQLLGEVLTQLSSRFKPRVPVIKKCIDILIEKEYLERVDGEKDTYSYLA
UniProt P01034: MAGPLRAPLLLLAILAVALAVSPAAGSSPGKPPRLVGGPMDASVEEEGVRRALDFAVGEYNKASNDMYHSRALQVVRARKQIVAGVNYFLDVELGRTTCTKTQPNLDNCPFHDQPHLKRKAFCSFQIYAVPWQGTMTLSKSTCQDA
UniProt Q14118: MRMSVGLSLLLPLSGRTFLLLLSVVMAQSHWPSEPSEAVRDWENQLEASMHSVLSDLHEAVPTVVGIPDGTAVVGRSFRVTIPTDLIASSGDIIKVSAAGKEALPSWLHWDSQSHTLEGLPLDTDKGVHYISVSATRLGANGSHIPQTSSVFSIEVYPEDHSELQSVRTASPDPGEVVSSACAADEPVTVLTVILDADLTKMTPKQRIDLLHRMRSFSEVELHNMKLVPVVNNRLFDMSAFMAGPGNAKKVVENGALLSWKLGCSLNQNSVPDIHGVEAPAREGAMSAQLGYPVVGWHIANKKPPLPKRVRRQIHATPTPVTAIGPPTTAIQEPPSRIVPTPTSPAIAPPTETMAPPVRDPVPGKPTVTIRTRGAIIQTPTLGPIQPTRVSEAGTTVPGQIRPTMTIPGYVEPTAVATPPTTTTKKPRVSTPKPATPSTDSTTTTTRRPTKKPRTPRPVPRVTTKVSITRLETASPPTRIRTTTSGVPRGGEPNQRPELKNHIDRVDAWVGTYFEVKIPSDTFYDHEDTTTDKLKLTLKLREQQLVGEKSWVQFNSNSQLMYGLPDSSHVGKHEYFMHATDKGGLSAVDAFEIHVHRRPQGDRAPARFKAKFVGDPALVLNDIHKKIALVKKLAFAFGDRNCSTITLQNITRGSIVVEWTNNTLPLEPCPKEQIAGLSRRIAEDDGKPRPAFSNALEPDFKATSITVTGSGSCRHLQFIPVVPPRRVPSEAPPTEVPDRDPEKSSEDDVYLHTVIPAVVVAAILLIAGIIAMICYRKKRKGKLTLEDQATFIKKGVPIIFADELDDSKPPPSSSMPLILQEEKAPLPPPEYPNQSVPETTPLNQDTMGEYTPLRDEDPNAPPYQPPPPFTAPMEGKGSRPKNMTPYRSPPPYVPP
UniProt Q05048: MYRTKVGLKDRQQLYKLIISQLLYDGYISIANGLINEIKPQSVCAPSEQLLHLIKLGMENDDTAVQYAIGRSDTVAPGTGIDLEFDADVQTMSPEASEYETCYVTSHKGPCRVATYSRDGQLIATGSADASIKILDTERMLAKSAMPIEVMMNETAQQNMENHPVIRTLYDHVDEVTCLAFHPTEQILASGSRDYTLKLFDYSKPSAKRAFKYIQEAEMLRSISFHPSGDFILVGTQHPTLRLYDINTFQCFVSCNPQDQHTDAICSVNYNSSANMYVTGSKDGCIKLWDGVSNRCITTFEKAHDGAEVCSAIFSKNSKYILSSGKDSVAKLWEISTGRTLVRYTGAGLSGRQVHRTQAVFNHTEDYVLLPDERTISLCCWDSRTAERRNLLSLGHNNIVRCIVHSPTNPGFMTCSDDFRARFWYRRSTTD
UniProt Q9UHQ9: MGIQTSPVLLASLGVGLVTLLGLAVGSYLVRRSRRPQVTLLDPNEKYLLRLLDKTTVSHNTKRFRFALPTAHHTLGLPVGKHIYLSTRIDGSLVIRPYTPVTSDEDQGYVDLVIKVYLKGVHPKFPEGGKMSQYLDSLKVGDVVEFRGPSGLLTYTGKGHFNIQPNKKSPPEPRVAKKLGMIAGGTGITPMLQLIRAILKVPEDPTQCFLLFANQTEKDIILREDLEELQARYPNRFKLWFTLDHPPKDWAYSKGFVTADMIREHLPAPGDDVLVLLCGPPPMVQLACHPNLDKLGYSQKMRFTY
UniProt P08574: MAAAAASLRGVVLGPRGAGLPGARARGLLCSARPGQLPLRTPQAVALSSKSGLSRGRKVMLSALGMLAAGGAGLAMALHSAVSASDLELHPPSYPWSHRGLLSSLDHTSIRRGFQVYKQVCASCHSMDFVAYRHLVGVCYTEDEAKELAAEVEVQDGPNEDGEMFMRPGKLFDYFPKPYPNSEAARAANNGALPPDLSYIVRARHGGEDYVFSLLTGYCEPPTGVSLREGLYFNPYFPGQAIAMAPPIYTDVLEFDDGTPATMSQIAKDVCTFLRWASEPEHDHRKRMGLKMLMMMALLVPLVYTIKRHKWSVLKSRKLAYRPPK
UniProt Q2VPK5: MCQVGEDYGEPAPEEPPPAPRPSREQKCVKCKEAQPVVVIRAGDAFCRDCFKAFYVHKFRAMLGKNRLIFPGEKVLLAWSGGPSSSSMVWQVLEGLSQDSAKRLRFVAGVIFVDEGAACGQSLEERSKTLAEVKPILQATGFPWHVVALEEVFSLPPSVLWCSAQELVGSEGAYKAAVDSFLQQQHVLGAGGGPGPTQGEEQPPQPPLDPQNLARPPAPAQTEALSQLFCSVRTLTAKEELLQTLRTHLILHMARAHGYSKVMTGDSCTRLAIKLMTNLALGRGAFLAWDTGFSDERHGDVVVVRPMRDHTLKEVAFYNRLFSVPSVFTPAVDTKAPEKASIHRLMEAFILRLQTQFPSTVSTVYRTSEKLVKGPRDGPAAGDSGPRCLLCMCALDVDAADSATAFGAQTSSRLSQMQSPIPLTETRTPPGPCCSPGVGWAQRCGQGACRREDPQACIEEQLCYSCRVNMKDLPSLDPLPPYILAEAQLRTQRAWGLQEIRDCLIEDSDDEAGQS
UniProt Q14247: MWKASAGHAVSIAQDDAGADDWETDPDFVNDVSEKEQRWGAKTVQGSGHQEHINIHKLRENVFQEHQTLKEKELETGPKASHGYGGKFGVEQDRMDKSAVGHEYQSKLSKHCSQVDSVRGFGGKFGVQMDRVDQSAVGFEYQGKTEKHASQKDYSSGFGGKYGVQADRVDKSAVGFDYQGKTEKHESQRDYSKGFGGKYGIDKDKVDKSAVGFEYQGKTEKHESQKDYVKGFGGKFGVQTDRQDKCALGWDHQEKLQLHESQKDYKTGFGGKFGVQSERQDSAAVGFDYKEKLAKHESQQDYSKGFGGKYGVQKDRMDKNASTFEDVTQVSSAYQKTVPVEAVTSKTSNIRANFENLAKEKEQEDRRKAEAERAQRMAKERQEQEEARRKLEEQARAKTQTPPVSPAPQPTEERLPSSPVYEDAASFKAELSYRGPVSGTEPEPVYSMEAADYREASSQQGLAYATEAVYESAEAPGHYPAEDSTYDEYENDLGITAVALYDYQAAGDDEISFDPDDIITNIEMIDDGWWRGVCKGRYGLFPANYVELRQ

Compound: CCN(CCCOc1ccc2c(Nc3cc(CC(=O)Nc4cccc(F)c4)[nH]n3)ncnc2c1)CCOP(=O)(O)O [barasertib]
Assay: log2 fold change, soluble protein after heating vs DMSO (PISA); higher = thermal stabilisation; K562 cells, 10 uM, 30 min; active = over 0.2 and 3.5 SD of the protein, either way, in both replicates (recomputed)
Outline: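 Quantification of soluble protein used TMTpro 16plex LC-MS/MS, with channel sums equalised. Samples were the supernatant after 21,000xg for 90 min of pooled aliquots from K562 cells (2×10^6 cells/mL) treated with 10 μM compound for 30 min, heated for 3 min over 48°C-58°C, and extracted in PBS with 0.5% NP-40 at 4°C. Values, from duplicates, describe thermal stability against control samples on a log2 fold-change scale.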

log2 fold change, inactive:
CT47A1 (UniProt Q5JQC4) 0.067
CWC27 (UniProt Q6UX04) 0.073
CYB5B, A0A499FJ32 -0.112
CUX1 isoform 2 (UniProt Q13948) 0.038
CYB5R4 (UniProt Q7L1T6) -0.001
CYHR1 (UniProt E9PJD7) 0.009
DCAF7 (UniProt P61962) 0.007
CT45A10 (UniProt P0DMU9) -0.072
CTPS1 (UniProt P17812) -0.002
CTH (UniProt P32929) -0.033
CTNNA2 (UniProt P26232) 0.024
CUL1 (UniProt Q13616) -0.004
CTSL (UniProt P07711) 0.092
CTNNB1 (UniProt P35222) 0.04
CYB5R3 isoform 3 (UniProt P00387) -0.019
CUTA isoform 2 (UniProt O60888) 0.015
CTIF isoform 2 (UniProt O43310) 0.017
CUL3 (UniProt Q13618) 0.012
CUL2 isoform 2 (UniProt Q13617) -0.013
CST3 (UniProt P01034) -0.046
DAG1 (UniProt Q14118) 0.011
D2HGDH (UniProt Q8N465) 0.036
CTSV (UniProt O60911) 0.032
CSTF1 (UniProt Q05048) -0.02
CYB5R1 (UniProt Q9UHQ9) 0.007
CTBP1 (UniProt Q13363) -0.004
CYFIP2 (UniProt Q96F07) 0.013
CUEDC2 (UniProt Q9H467) 0.091
CXorf56 (UniProt Q9H5V9) 0.028
CSPP1 (UniProt Q1MSJ5) -0.008
DCAF15 (UniProt Q66K64) 0.041
CSTF3 (UniProt Q12996) 0.007
CYFIP1 (UniProt Q7L576) 0.038
DCTN3 (UniProt O75935) 0.066
DBR1 (UniProt Q9UK59) -0.022
CYC1 (UniProt P08574) -0.033
CTU2 (UniProt Q2VPK5) 0.006
CTBS (UniProt Q01459) 0.03
DCAF10 (UniProt Q5QP82) -0.006
CTTN (UniProt Q14247) 0

Two consecutive entries already listed, for reference:
log2 fold change, inactive:
CXorf56 (UniProt Q9H5V9) 0.028
CSPP1 (UniProt Q1MSJ5) -0.008
